# From the supplement of paper PMC11438910
# The list shows a part of the results. Only a few entries rise above the background.
# Assays:
# Assay in all cases: fluorescence intensity of antibody binding to polysaccharide-coupled beads; higher = stronger binding
# [1] = target: pneumococcal polysaccharide C-Poly-1
# [2] = target: pneumococcal polysaccharide C-Poly-2
# [3] = target: pneumococcal polysaccharide Pn1
# [4] = target: pneumococcal polysaccharide Pn10A
# [5] = target: pneumococcal polysaccharide Pn10B
# [6] = target: pneumococcal polysaccharide Pn10C
# [7] = target: pneumococcal polysaccharide Pn10F
# [8] = target: pneumococcal polysaccharide Pn11A
# [9] = target: pneumococcal polysaccharide Pn11B
# [10] = target: pneumococcal polysaccharide Pn11C
# [11] = target: pneumococcal polysaccharide Pn11D
# [12] = target: pneumococcal polysaccharide Pn11F
# [13] = target: pneumococcal polysaccharide Pn12A
# [14] = target: pneumococcal polysaccharide Pn12B
# [15] = target: pneumococcal polysaccharide Pn12F
# [16] = target: pneumococcal polysaccharide Pn8
# [17] = target: pneumococcal polysaccharide Pn9A
# [18] = target: pneumococcal polysaccharide Pn9L
# [19] = target: pneumococcal polysaccharide Pn9N
# [20] = target: pneumococcal polysaccharide Pn9V
# [21] = antibody concentration 0.1 ng/mL
# [22] = antibody concentration 0.534724 ng/mL
# [23] = antibody concentration 2.8593 ng/mL
# [24] = antibody concentration 15.2894 ng/mL
# [25] = antibody concentration 81.7561 ng/mL
# [26] = antibody concentration 437.17 ng/mL
# [27] = antibody concentration 2337.65 ng/mL
# [28] = antibody concentration 12500 ng/mL
binder,measurement,setting,value
3S41.2 (protein) chain 1: EVQLVESGGGLVQPGGSLRLSCATSGFTFRNYWMYWFRQAPGKGLDWVSSISDSSSNTFYSDSVKGRFTISRDNAKNTLYLQMNSLRAEDTAVYYCARRPIAAATGVYWYFDLWGPGTPITVSS chain 2: QAALTQPPSMSGSPGQSVTISCTGTSSDIGGYNRVSWYQQYPGKAPKLMIYEVSKRPSGVSDRFSGSKSGNTAALTISGLQAADEADYYCSSYAGSYTFVLFGGGTRLTVL,fluorescence intensity,[1]; [21],26.5 MFI
same,fluorescence intensity,[1]; [22],28 MFI
same,fluorescence intensity,[1]; [23],28.2 MFI
same,fluorescence intensity,[1]; [24],26 MFI
same,fluorescence intensity,[1]; [25],27.5 MFI
same,fluorescence intensity,[1]; [26],30.5 MFI
same,fluorescence intensity,[1]; [27],94 MFI
same,fluorescence intensity,[1]; [28],728 MFI
same,fluorescence intensity,[2]; [21],19.5 MFI
same,fluorescence intensity,[2]; [22],22 MFI
same,fluorescence intensity,[2]; [23],22.5 MFI
same,fluorescence intensity,[2]; [24],21 MFI
same,fluorescence intensity,[2]; [25],21.5 MFI
same,fluorescence intensity,[2]; [26],25.5 MFI
same,fluorescence intensity,[2]; [27],77.8 MFI
same,fluorescence intensity,[2]; [28],654 MFI
same,fluorescence intensity,[3]; [21],14.2 MFI
same,fluorescence intensity,[3]; [22],15 MFI
same,fluorescence intensity,[3]; [23],13 MFI
same,fluorescence intensity,[3]; [24],14.5 MFI
same,fluorescence intensity,[3]; [25],13.5 MFI
same,fluorescence intensity,[3]; [26],16.5 MFI
same,fluorescence intensity,[3]; [27],25.5 MFI
same,fluorescence intensity,[3]; [28],84.5 MFI
same,fluorescence intensity,[4]; [21],27 MFI
same,fluorescence intensity,[4]; [22],28 MFI
same,fluorescence intensity,[4]; [23],27.5 MFI
same,fluorescence intensity,[4]; [24],26.5 MFI
same,fluorescence intensity,[4]; [25],26.5 MFI
same,fluorescence intensity,[4]; [26],27.5 MFI
same,fluorescence intensity,[4]; [27],34 MFI
same,fluorescence intensity,[4]; [28],67.8 MFI
same,fluorescence intensity,[5]; [21],23.2 MFI
same,fluorescence intensity,[5]; [22],23.5 MFI
same,fluorescence intensity,[5]; [23],23.5 MFI
same,fluorescence intensity,[5]; [24],23.8 MFI
same,fluorescence intensity,[5]; [25],23 MFI
same,fluorescence intensity,[5]; [26],25 MFI
same,fluorescence intensity,[5]; [27],28.5 MFI
same,fluorescence intensity,[5]; [28],40 MFI
same,fluorescence intensity,[6]; [21],17.5 MFI
same,fluorescence intensity,[6]; [22],16.5 MFI
same,fluorescence intensity,[6]; [23],16 MFI
same,fluorescence intensity,[6]; [24],16.5 MFI
same,fluorescence intensity,[6]; [25],16.5 MFI
same,fluorescence intensity,[6]; [26],18 MFI
same,fluorescence intensity,[6]; [27],20.2 MFI
same,fluorescence intensity,[6]; [28],30 MFI
same,fluorescence intensity,[7]; [21],19.8 MFI
same,fluorescence intensity,[7]; [22],19.5 MFI
same,fluorescence intensity,[7]; [23],19.5 MFI
same,fluorescence intensity,[7]; [24],20 MFI
same,fluorescence intensity,[7]; [25],20.8 MFI
same,fluorescence intensity,[7]; [26],20.8 MFI
same,fluorescence intensity,[7]; [27],21.5 MFI
same,fluorescence intensity,[7]; [28],26 MFI
same,fluorescence intensity,[8]; [21],28.2 MFI
same,fluorescence intensity,[8]; [22],31 MFI
same,fluorescence intensity,[8]; [23],27.2 MFI
same,fluorescence intensity,[8]; [24],29.5 MFI
same,fluorescence intensity,[8]; [25],29 MFI
same,fluorescence intensity,[8]; [26],31.2 MFI
same,fluorescence intensity,[8]; [27],40.2 MFI
same,fluorescence intensity,[8]; [28],53.5 MFI
same,fluorescence intensity,[9]; [21],26.5 MFI
same,fluorescence intensity,[9]; [22],28 MFI
same,fluorescence intensity,[9]; [23],26 MFI
same,fluorescence intensity,[9]; [24],25.8 MFI
same,fluorescence intensity,[9]; [25],27.8 MFI
same,fluorescence intensity,[9]; [26],29.5 MFI
same,fluorescence intensity,[9]; [27],34.5 MFI
same,fluorescence intensity,[9]; [28],43.2 MFI
same,fluorescence intensity,[10]; [21],22.2 MFI
same,fluorescence intensity,[10]; [22],22 MFI
same,fluorescence intensity,[10]; [23],22 MFI
same,fluorescence intensity,[10]; [24],22.5 MFI
same,fluorescence intensity,[10]; [25],23.2 MFI
same,fluorescence intensity,[10]; [26],25.5 MFI
same,fluorescence intensity,[10]; [27],65.5 MFI
same,fluorescence intensity,[10]; [28],393 MFI
same,fluorescence intensity,[11]; [21],23 MFI
same,fluorescence intensity,[11]; [22],23.5 MFI
same,fluorescence intensity,[11]; [23],23 MFI
same,fluorescence intensity,[11]; [24],24 MFI
same,fluorescence intensity,[11]; [25],24 MFI
same,fluorescence intensity,[11]; [26],24 MFI
same,fluorescence intensity,[11]; [27],41.5 MFI
same,fluorescence intensity,[11]; [28],170 MFI
same,fluorescence intensity,[12]; [21],14.5 MFI
same,fluorescence intensity,[12]; [22],14 MFI
same,fluorescence intensity,[12]; [23],15 MFI
same,fluorescence intensity,[12]; [24],14.5 MFI
same,fluorescence intensity,[12]; [25],14 MFI
same,fluorescence intensity,[12]; [26],14.5 MFI
same,fluorescence intensity,[12]; [27],18 MFI
same,fluorescence intensity,[12]; [28],30 MFI
same,fluorescence intensity,[13]; [21],15 MFI
same,fluorescence intensity,[13]; [22],14.5 MFI
same,fluorescence intensity,[13]; [23],15.5 MFI
same,fluorescence intensity,[13]; [24],15.5 MFI
same,fluorescence intensity,[13]; [25],14.5 MFI
same,fluorescence intensity,[13]; [26],18.5 MFI
same,fluorescence intensity,[13]; [27],21.5 MFI
same,fluorescence intensity,[13]; [28],49 MFI
same,fluorescence intensity,[14]; [21],15.5 MFI
same,fluorescence intensity,[14]; [22],15 MFI
same,fluorescence intensity,[14]; [23],16.5 MFI
same,fluorescence intensity,[14]; [24],16.5 MFI
same,fluorescence intensity,[14]; [25],16.5 MFI
same,fluorescence intensity,[14]; [26],17.5 MFI
same,fluorescence intensity,[14]; [27],22.5 MFI
same,fluorescence intensity,[14]; [28],52.2 MFI
same,fluorescence intensity,[15]; [21],18.5 MFI
same,fluorescence intensity,[15]; [22],18 MFI
same,fluorescence intensity,[15]; [23],20.2 MFI
same,fluorescence intensity,[15]; [24],18.8 MFI
same,fluorescence intensity,[15]; [25],17.5 MFI
same,fluorescence intensity,[15]; [26],21.2 MFI
same,fluorescence intensity,[15]; [27],30.2 MFI
same,fluorescence intensity,[15]; [28],100 MFI
4-127.2 (protein) chain 1: QVQLQESGPGLVKPSETLSLTCAVSGYSVNSGHGWTWIRQSPGKGLEWIGYIGGGSGSSNYNPSLKSRVTISKDTSNNQLSLKLRSLTTADTAMYYCARRVPADRSGNDYWGQGVLVTVSS chain 2: QSVLTQPPSVSGDPGQRVTISCTGSSSNIGDYYGYWYQQFPGTAPKLLIFDDNNRPSGISDRFSGSKAGTSASLTITGLQPGDEADYYCGAWDGSLNAHVFGSGTKLTVL,fluorescence intensity,[16]; [21],21 MFI
same,fluorescence intensity,[16]; [22],19.8 MFI
same,fluorescence intensity,[16]; [23],21.5 MFI
same,fluorescence intensity,[16]; [24],20 MFI
same,fluorescence intensity,[16]; [25],21.2 MFI
same,fluorescence intensity,[16]; [26],28.5 MFI
same,fluorescence intensity,[16]; [27],31.5 MFI
same,fluorescence intensity,[16]; [28],41 MFI
same,fluorescence intensity,[17]; [21],19.8 MFI
same,fluorescence intensity,[17]; [22],18.2 MFI
same,fluorescence intensity,[17]; [23],18.8 MFI
same,fluorescence intensity,[17]; [24],19 MFI
same,fluorescence intensity,[17]; [25],18.8 MFI
same,fluorescence intensity,[17]; [26],19 MFI
same,fluorescence intensity,[17]; [27],26 MFI
same,fluorescence intensity,[17]; [28],75 MFI
same,fluorescence intensity,[18]; [21],17 MFI
same,fluorescence intensity,[18]; [22],16.5 MFI
same,fluorescence intensity,[18]; [23],17.5 MFI
same,fluorescence intensity,[18]; [24],17 MFI
same,fluorescence intensity,[18]; [25],17.2 MFI
same,fluorescence intensity,[18]; [26],16 MFI
same,fluorescence intensity,[18]; [27],19.5 MFI
same,fluorescence intensity,[18]; [28],41 MFI
same,fluorescence intensity,[19]; [21],14.5 MFI
same,fluorescence intensity,[19]; [22],14.5 MFI
same,fluorescence intensity,[19]; [23],16 MFI
same,fluorescence intensity,[19]; [24],16 MFI
same,fluorescence intensity,[19]; [25],16.5 MFI
same,fluorescence intensity,[19]; [26],15.5 MFI
same,fluorescence intensity,[19]; [27],20.5 MFI
same,fluorescence intensity,[19]; [28],60.5 MFI
same,fluorescence intensity,[20]; [21],14 MFI
same,fluorescence intensity,[20]; [22],13.8 MFI
same,fluorescence intensity,[20]; [23],15 MFI
same,fluorescence intensity,[20]; [24],13.5 MFI
same,fluorescence intensity,[20]; [25],14.5 MFI
same,fluorescence intensity,[20]; [26],18 MFI
same,fluorescence intensity,[20]; [27],18.5 MFI
same,fluorescence intensity,[20]; [28],22.2 MFI

# An excerpt of these results, tab-delimited.
binder	measurement	setting	value
3S41.2 (protein) chain 1: EVQLVESGGGLVQPGGSLRLSCATSGFTFRNYWMYWFRQAPGKGLDWVSSISDSSSNTFYSDSVKGRFTISRDNAKNTLYLQMNSLRAEDTAVYYCARRPIAAATGVYWYFDLWGPGTPITVSS chain 2: QAALTQPPSMSGSPGQSVTISCTGTSSDIGGYNRVSWYQQYPGKAPKLMIYEVSKRPSGVSDRFSGSKSGNTAALTISGLQAADEADYYCSSYAGSYTFVLFGGGTRLTVL	fluorescence intensity	[7]; [28]	26 MFI
same	fluorescence intensity	[8]; [21]	28.2 MFI
same	fluorescence intensity	[8]; [22]	31 MFI
same	fluorescence intensity	[8]; [23]	27.2 MFI

# Already shown: an excerpt of the list.
binder,measurement,setting,value
3S41.2 (protein) chain 1: EVQLVESGGGLVQPGGSLRLSCATSGFTFRNYWMYWFRQAPGKGLDWVSSISDSSSNTFYSDSVKGRFTISRDNAKNTLYLQMNSLRAEDTAVYYCARRPIAAATGVYWYFDLWGPGTPITVSS chain 2: QAALTQPPSMSGSPGQSVTISCTGTSSDIGGYNRVSWYQQYPGKAPKLMIYEVSKRPSGVSDRFSGSKSGNTAALTISGLQAADEADYYCSSYAGSYTFVLFGGGTRLTVL,fluorescence intensity,[13]; [27],21.5 MFI
same,fluorescence intensity,[13]; [28],49 MFI
same,fluorescence intensity,[14]; [21],15.5 MFI
same,fluorescence intensity,[14]; [22],15 MFI
